Measurements reported in the supplement of paper PMC8166895.
Counter-ions that a name gives are not always drawn. The list shows a part of the results. Most values lie at the level of the controls, where differences are scatter.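 Differential scanning fluorimetry gave melting temperatures in a one-replicate pilot screen of a library of approved drugs plus clinical or known-target compounds. Hits increasing melting point at least 2 °C were the strongest stabilizers, while negative shifts signify destabilization.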

The compounds below were run on SARS-CoV-2 main protease (Mpro, nsp5) (assay: thermal shift ΔTm of Mpro relative to plate average Tm; higher = stronger thermal stabilization of Mpro (binding)). Details: 10 µM; protein concentration 1 µM.
In the case of `NCC(CC(=O)O)c1ccccc1` (stereo not given) [Phenibut], the “thermal shift ΔTm of Mpro” value is reported as -0.108 °C. `CCOC(=O)c1ncn2c1CN(C)C(=O)c1cc(F)ccc1-2` [Flumazenil] was tested, and the “thermal shift ΔTm of Mpro” value was 0.318 °C. For `Cc1cc(C)c2c(c1)[C@@H](N(Cc1cc(C(F)(F)F)cc(C(F)(F)F)c1)c1nnn(C)n1)CCCN2C[C@H]1CC[C@H](C(=O)O)CC1`, the “thermal shift ΔTm of Mpro” value was -0.0559 °C. `C=CC[C@]1(O)CC[C@H]2[C@@H]3CCC4=CCCC[C@@H]4[C@H]3CC[C@@]21C` [Allylestrenol] was tested, and the “thermal shift ΔTm of Mpro” value was 0.129 °C. In the case of `Cn1c(=O)cc(C(=O)Nc2ccc3c(c2)OCCO3)c2ccccc21`, the “thermal shift ΔTm of Mpro” value is reported as 0.0238 °C. `COC(=O)N[C@H](C(=O)N1CCC[C@H]1c1ncc(-c2ccc(-c3ccc(-c4cnc([C@@H]5CCCN5C(=O)[C@@H](NC(=O)OC)C(C)C)[nH]4)cc3)cc2)[nH]1)C(C)C` [Daclatasvir dihydrochloride] was tested, and the “thermal shift ΔTm of Mpro” value was -0.0365 °C. In the case of `COC(=O)N[C@H](C(=O)N1CCC[C@H]1c1ncc(-c2ccc(-c3ccc(-c4cnc([C@@H]5CCCN5C(=O)[C@@H](NC(=O)OC)C(C)C)[nH]4)cc3)cc2)[nH]1)C(C)C`, the “thermal shift ΔTm of Mpro” value is reported as 0.214 °C. In the case of `CCCCN(Cc1ccc(C(=O)NO)cc1)C(=O)Nc1ccccc1` [Nexturastat A], the “thermal shift ΔTm of Mpro” value is reported as 0.0549 °C. `C#C[C@]1(O)CC[C@H]2[C@@H]3CCc4cc(O)ccc4[C@H]3CC[C@@]21C` [Ethinyl Estradiol] was tested, and the “thermal shift ΔTm of Mpro” value was -0.141 °C. With `CN[C@@H]1[C@@H](O)[C@@H](O[C@@H]2[C@@H](O)[C@H](O[C@H]3O[C@H](CN)[C@@H](O)[C@H](O)[C@H]3O)[C@@H](N)C[C@H]2NC(=O)[C@@H](O)CN)OC[C@]1(C)O` [Isepamicin sulfate] the “thermal shift ΔTm of Mpro” value was -0.0561 °C. In the case of `COc1cc(F)c(F)c(Nc2ccc(I)cc2F)c1NS(=O)(=O)C1(C[C@H](O)CO)CC1` [Refametinib (RDEA119, Bay 86-9766)], the “thermal shift ΔTm of Mpro” value is reported as 0.238 °C. In the case of `CC(C)n1cnc2c(-c3cnc(N)nc3)nc(N3CCOCC3)nc21` [Desmethyl-VS-5584], the “thermal shift ΔTm of Mpro” value is reported as 0.131 °C. With `O=S(=O)(c1ccccc1)N(CC(F)(F)F)c1ccc(C(O)(C(F)(F)F)C(F)(F)F)cc1` the “thermal shift ΔTm of Mpro” value was -0.00135 °C. In the case of `CC#CC(=O)Nc1ccc2ncnc(Nc3cccc(Br)c3)c2c1`, the “thermal shift ΔTm of Mpro” value is reported as 0.145 °C. In the case of `CCOC(=O)C1=C(C)NC(C)=C(C(=O)OCC)C1c1ccccc1/C=C/C(=O)OC(C)(C)C` [Lacidipine], the “thermal shift ΔTm of Mpro” value is reported as 0.0491 °C. In the case of `Cn1c(=O)n(-c2ccc(C(C)(C)C#N)cc2)c2c3cc(-c4cnc5ccccc5c4)ccc3ncc21` [Dactolisib], the “thermal shift ΔTm of Mpro” value is reported as -0.241 °C. `O=C(c1cccs1)c1no[n+]([O-])c1C(=O)c1cccs1` was tested, and the “thermal shift ΔTm of Mpro” value was 0.0698 °C. In the case of `O=C(O)C(Cc1c[nH]c2ccccc12)N1C(=O)c2ccccc2C1=O` (stereo not given), the “thermal shift ΔTm of Mpro” value is reported as -0.138 °C. With `CCOc1cc(CC(=O)N[C@@H](CC(C)C)c2ccccc2N2CCCCC2)ccc1C(=O)O` [Repaglinide] the “thermal shift ΔTm of Mpro” value was 0.297 °C. For `CCCn1/c(=N/C(=O)c2cccc(C(N)=O)c2)[nH]c2ccccc21` [Takinib], the “thermal shift ΔTm of Mpro” value was -0.0864 °C. In the case of `CC(=O)OCC(=O)[C@@]1(O)[C@H](C)C[C@H]2[C@@H]3CCC4=CC(=O)C=C[C@]4(C)[C@@]3(F)[C@@H](O)C[C@@]21C` [Dexamethasone Acetate], the “thermal shift ΔTm of Mpro” value is reported as 0.011 °C. In the case of `COc1ncnc(NS(=O)(=O)c2ccc(N)cc2)c1OC` [Sulfadoxine], the “thermal shift ΔTm of Mpro” value is reported as 0.277 °C. With `CC(C)(C)c1ccc(C(=O)NC(=S)Nc2ccc(N)cc2)cc1` [Tenovin-3] the “thermal shift ΔTm of Mpro” value was 0.0952 °C. `CC1(C)CCC[C@]2(C)[C@H]3CC(=O)O[C@]3(C)CC[C@@H]12` [Sclareolide] was tested, and the “thermal shift ΔTm of Mpro” value was -0.102 °C. For `COc1ccc(C(=O)c2ccccc2)c(O)c1` [Oxybenzone], the “thermal shift ΔTm of Mpro” value was 0.145 °C. In the case of `COc1c(N2C[C@@H]3CCCN[C@@H]3C2)c(F)cc2c(=O)c(C(=O)O)cn(C3CC3)c12` [Moxifloxacin HCl], the “thermal shift ΔTm of Mpro” value is reported as 0.247 °C. With `COc1ccc(C(=O)CC(=O)c2ccc(C(C)(C)C)cc2)cc1` [Avobenzone] the “thermal shift ΔTm of Mpro” value was -0.0273 °C. With `OC[C@H]1O[C@H](OC[C@H]2OC(O)[C@H](O)[C@@H](O)[C@@H]2O)[C@H](O)[C@@H](O)[C@@H]1O` (stereo not given in full) [Isomaltose] the “thermal shift ΔTm of Mpro” value was 0.196 °C. For `Cc1c(CCC(=O)O)ccc(OCc2cc(Cl)cc3c2OC(C)(C)C3)c1C` [GPR120 receptor agonist], the “thermal shift ΔTm of Mpro” value was -0.368 °C. In the case of `CC[C@@H]1[C@H](O)[C@@H]2[C@H](CC[C@]3(C)[C@@H]([C@H](C)CCCO)CC[C@@H]23)[C@@]2(C)CC[C@@H](O)C[C@@H]12`, the “thermal shift ΔTm of Mpro” value is reported as -0.397 °C. With `O=C(O)Cn1c2c(c3cc(F)ccc31)CN(C(=O)c1cccc3ccccc13)CC2` [Setipiprant] the “thermal shift ΔTm of Mpro” value was 0.0638 °C. `Nc1nc2c(ncn2COCCO)c(=O)[nH]1` [Aciclovir] was tested, and the “thermal shift ΔTm of Mpro” value was 0.134 °C. `Oc1ccc(-c2c(-c3ccccc3)nn3c(C(F)(F)F)cc(C(F)(F)F)nc23)cc1` was tested, and the “thermal shift ΔTm of Mpro” value was 0.0707 °C. `COc1ccc(S(=O)(=O)Nc2c(C)cc(C)cc2C)cc1` was tested, and the “thermal shift ΔTm of Mpro” value was -0.0316 °C. `CS(=O)(=O)N1CCN(Cc2cc3nc(-c4cccc5[nH]ncc45)nc(N4CCOCC4)c3s2)CC1` was tested, and the “thermal shift ΔTm of Mpro” value was 0.0794 °C.
